{"source": "patent US20250114360A1", "about": "“NOVEL REGIMEN FOR AUGMENTING AND EXTENDING TRANSPLANT TOLERANCE” (The Regents of the University of California, priority 2022, published 2025)", "origin": "cited, not measured here", "key": {"human CD4+ T cells": {"system": "human CD4+ T cells", "conditions": "via STAT3, IRF4 and RORγt regulation"}, "key fibrotic processes": {"system": "key fibrotic processes", "conditions": "preclinical models"}, "[1]": {"system": "human regulatory T cells (Tregs)"}}, "note": "At least one structure is not confirmed: it was looked up by name or label, or the drawing left a doubt.", "data": [{"compound": "CC(C)NC(=O)COc1cccc(-c2nc(Nc3ccc4[nH]ncc4c3)c3ccccc3n2)c1", "note": "[belumosudil]", "values": [{"measurement": "IL-17 secretion", "setting": "human CD4+ T cells", "result": "attenuates"}, {"measurement": "IL-21 secretion", "setting": "human CD4+ T cells", "result": "attenuates"}, {"measurement": "key fibrotic processes (profibrotic gene transcription, stress fiber formation, myofibroblast activation, collagen deposition)", "setting": "key fibrotic processes", "result": "down-regulates"}, {"measurement": "suppressive function of human regulatory T cells (Tregs)", "setting": "[1]", "result": "upregulates"}, {"measurement": "percentages of Foxp3+ CD4+ T cells", "setting": "[1]; via a STAT5-dependent mechanism", "result": "increased percentages"}]}]}
